For experiment [1], the target named is T1, FLAG-tagged Smek1 (human) (UniProt Q6IN85).
T1 sequence: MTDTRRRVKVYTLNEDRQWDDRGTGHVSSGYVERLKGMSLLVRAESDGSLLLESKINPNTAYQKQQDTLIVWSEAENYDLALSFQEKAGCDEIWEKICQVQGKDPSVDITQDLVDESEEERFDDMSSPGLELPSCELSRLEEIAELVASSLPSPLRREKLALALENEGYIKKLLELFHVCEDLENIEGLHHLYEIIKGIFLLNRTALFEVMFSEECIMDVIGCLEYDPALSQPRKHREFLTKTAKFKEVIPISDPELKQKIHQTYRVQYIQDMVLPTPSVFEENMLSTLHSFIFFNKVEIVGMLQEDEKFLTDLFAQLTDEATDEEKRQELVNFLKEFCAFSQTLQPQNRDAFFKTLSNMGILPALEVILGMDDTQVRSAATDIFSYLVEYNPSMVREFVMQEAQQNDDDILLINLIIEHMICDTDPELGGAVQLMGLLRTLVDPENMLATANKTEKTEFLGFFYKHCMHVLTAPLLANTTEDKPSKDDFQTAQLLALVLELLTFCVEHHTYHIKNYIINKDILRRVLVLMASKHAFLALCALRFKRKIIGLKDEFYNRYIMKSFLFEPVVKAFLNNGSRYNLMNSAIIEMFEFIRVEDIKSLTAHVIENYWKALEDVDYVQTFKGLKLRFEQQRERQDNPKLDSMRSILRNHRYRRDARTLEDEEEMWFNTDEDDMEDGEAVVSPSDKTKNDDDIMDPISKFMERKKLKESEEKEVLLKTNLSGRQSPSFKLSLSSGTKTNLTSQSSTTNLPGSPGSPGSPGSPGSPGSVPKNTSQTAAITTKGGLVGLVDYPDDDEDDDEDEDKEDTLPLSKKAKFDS
Description: co-immunoprecipitation from 293T cells, western blot.

The chains behind the UniProt entries cited, without tags or fusion partners. Where a name states a change or a piece, a line headed by the entry shows the natural chain unless it says otherwise. A line that says so, or that is headed by a name, gives the form on record, which may keep a tag or linker.
UniProt P98177: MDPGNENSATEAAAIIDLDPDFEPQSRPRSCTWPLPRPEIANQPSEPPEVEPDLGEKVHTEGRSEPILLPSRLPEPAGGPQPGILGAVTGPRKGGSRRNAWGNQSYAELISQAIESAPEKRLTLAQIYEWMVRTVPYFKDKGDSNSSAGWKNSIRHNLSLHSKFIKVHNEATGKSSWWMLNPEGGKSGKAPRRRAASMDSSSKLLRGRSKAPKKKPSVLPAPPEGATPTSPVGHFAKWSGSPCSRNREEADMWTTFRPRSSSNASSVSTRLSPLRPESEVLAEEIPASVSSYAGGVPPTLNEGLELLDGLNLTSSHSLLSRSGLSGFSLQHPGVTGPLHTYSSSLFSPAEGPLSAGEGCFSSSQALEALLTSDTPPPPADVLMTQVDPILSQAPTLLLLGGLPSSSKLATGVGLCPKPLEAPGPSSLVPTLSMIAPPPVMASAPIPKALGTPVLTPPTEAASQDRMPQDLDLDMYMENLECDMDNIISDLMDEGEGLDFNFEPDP
HA-tagged FOXO4-TM (P98177, form named): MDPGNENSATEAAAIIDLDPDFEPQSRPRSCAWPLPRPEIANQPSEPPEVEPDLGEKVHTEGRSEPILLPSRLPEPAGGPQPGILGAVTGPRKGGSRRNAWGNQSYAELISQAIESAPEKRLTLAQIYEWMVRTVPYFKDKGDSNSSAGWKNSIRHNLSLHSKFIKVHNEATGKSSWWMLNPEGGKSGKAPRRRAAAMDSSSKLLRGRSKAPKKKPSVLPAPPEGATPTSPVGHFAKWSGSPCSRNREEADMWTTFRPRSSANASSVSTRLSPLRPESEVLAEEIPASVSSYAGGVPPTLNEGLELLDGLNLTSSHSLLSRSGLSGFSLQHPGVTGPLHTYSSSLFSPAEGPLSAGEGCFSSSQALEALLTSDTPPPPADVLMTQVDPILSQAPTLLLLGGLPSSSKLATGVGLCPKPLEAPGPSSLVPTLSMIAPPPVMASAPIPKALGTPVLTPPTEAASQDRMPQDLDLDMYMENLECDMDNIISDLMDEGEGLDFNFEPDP
UniProt O43524: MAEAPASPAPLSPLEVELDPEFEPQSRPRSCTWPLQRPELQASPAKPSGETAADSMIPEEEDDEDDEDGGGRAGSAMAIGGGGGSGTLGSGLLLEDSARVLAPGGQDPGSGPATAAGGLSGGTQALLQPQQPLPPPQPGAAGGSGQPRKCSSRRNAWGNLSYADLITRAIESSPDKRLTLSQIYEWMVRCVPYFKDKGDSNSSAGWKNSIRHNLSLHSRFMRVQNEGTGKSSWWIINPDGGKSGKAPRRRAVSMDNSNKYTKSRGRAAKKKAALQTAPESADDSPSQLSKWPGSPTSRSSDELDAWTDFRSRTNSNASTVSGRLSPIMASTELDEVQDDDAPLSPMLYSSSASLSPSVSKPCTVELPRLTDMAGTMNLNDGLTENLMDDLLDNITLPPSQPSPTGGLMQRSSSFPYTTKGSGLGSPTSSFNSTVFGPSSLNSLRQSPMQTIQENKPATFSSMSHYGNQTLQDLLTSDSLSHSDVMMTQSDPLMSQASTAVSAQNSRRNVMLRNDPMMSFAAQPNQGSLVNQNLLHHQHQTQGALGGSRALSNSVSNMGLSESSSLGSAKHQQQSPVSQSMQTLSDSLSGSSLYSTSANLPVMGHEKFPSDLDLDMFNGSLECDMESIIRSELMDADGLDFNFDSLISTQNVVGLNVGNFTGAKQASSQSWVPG

For experiment [2], the target named is T1, FLAG-tagged Smek1 (human). The experiment can be described thus: reverse co-immunoprecipitation from 293T cells, western blot.
The target in experiment [3] is HA-tagged FOXO4 (AFX) (UniProt P98177). Description: co-immunoprecipitation from 293T cells, western blot.
Experiment [4] concerns the target HA-tagged FOXO3a (human) (UniProt O43524). The description is as above.

Results are given in words; binding and its absence hold for the method and conditions named. In cells and extracts the contact can be indirect. Some results given as binding are weak or reduced against the parent protein; the word gives no strength. Where a sequence is shown, tags or fusion partners need not be part of it.

Turning to “HA-tagged FOXO4 (AFX) (from UniProt P98177 1-505)”, the binding entry in experiment [1] is reported as “binds”. Still for that read-out and setting: with “HA-tagged FOXO4-TM (from UniProt P98177 1-505)” the entry was “binds”.

“HA-tagged FOXO3a (from UniProt O43524 1-673)”: the binding result in experiment [2] is listed as “binds”.

B1: FLAG-tagged Smek1 (protein)
chain: T1 sequence
B1: the binding entry in experiment [3] and in experiment [4] was “binds” each time.

(Values after US20060019314A1.)
